In publication PMC7795834 one finds binding data, which are given here for three molecules.

These are yes or no findings as the source states them, for the method shown. Binding seen in cells or lysates may run through a third protein. A result given as binding can be weak or reduced; the word gives no strength. Where a sequence is shown, tags or fusion partners need not be part of it.

Holding throughout (assay): split reporter; BiFC with split Venus (VN and VC fusions) in rice protoplasts, PEG-mediated transfection; ER-mCherry as internal control; confocal microscopy
Experiment [1] concerns the target OsDREB1A-VC (BiFC fusion) (rice).
The target of experiment [2] is OsDREB1C-VC (BiFC fusion) (rice).
Experiment [3] deals with OsDREB1B-VC (BiFC fusion) (rice).

B1: OsPP2C09-VN (BiFC fusion) (enzyme, UniProt Q5N9N2 1-414)
chain: MAEICCEEAMSPPATATAAVAAAVSASAAAAVSSAIDRRRRRMEMRRIRIASDLELQAGEDGRPGKRQRLARTASGAPRPDEDSASERPSCGRTEEFPRYGVTAVCGRRREMEDAVSIRPDFLPASGKFHFYGVFDGHGCSHVATTCQDRMHEIVAEEHNKGASGEVAPWRDVMEKSFARMDGEVGNRASTRSDDEPACPCEQQTPSRRDHAGSTAVVAVVSPTQVVVANAGDSRAVISRAGVPVALSVDHKPDRPDELERIEAAGGRVIYWDGARVLGVLAMSRAIGDGYLKPYVTSEPEVTVTERTDDDECLILASDGLWDVVTNEMACEVVRACFHNNGPPAPAARPSGVPSSAEAAETENGGAASVKGISKAESSDKACSDAAMLLTKLALARRSADNVSVVVVDLRRGL
Take B1: the binding entry in experiment [1], in experiment [2] and in experiment [3] was “binds” throughout.

B2: OsPP2C30-VN (BiFC fusion) (enzyme, UniProt Q84JI0 1-404)
chain: MAEICCEVVAGSSSEGKGPECDTGSRAARRRRMEIRRLRVVAERGAEEETSGKRRRLDGGGGEASTDEEDREVERARYGFTSVCGRRRDMEDSVSACPGFLPGHHFFGVFDGHGCSHVATSCGQRMHEIVVDEAGAAAGSAGLDEEARWRGVMERSFARMDAEAVASSRGSVAPAPTCRCEMQLPKCDHVGSTAVVAVLGPRHVVVANCGDSRAVLCRGGAAIPLSCDHKPDRPDELERIHAAGGRVIFWDGARVFGMLAMSRAIGDSYLKPYVICDPEVRVMERKDGEDEFLILASDGLWDVVSNEVACNVVRACLRSSGRRERNRSSPTSNLSPRQSSSSGDEAPNDGAPSAAAGSESDEESAAEEDKACAEAAVLLTKLALARQTSDNVSVVVVNLRRRKL
In the case of B2, the binding entry in experiment [1], in experiment [2] and in experiment [3] was “binds” each time.

B3: OsPP2C06-VN (BiFC fusion) (enzyme, UniProt Q0JLP9 1-467)
chain: MEDVAVAAALAPAPATAPVFSPAAAGLTLIAAAAADPIAAVVAGAMDGVVTVPPVRTASAVEDDAVAPGRGEEGGEASAVGSPCSVTSDCSSVASADFEGVGLGFFGAAADGGAAMVFEDSAASAATVEAEARVAAGARSVFAVECVPLWGHKSICGRRPEMEDAVVAVSRFFDIPLWMLTGNSVVDGLDPMSFRLPAHFFGVYDGHGGAQVANYCRERLHAALVEELSRIEGSVSGANLGSVEFKKKWEQAFVDCFSRVDEEVGGNASRGEAVAPETVGSTAVVAVICSSHIIVANCGDSRAVLCRGKQPVPLSVDHKPNREDEYARIEAEGGKVIQWNGYRVFGVLAMSRSIGDRYLKPWIIPVPEITIVPRAKDDECLVLASDGLWDVMSNEEVCDVARKRILLWHKKNGTNPASAPRSGDSSDPAAEAAAECLSKLALQKGSKDNISVIVVDLKAHRKFKSKS
For the molecule B3, the binding entry in experiment [1], in experiment [2] and in experiment [3] was “no binding” each time.
